PubChem BioAssay AID1224827 | NIAID – 2016
Shown is an unselected part of about 3,800 deposited reagents. Of all reagents, about 2,200 (57%) are marked active. 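Active means a strong reporter change in either direction; calls are per siRNA, not per gene; qiagen siRNAs gave weaker effects.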 Reagents against one gene are numbered here. Further read-outs or replicates are left out here.

- Aim: 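Retest primary hits on a TNF reporter with six siRNAs per gene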 (follow-up of hits)
- Cells: RAW264.7 G9 mouse macrophage reporter clone
- Reagent: single siRNA against mouse genes, 100 nM siRNA
- Timing: siRNA for 2 days, then LPS about 16 h
- Challenge: bacterial lipopolysaccharide (LPS), 10 ng/ml, cells fixed after overnight (about 16 h) stimulation
- Detection: 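Imaged nuclear TNF reporter intensity, background removed, scaled per plate and to non-targeting control wells, as z-scores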
- Direction: TNF reporter z-score, mean: higher = stronger Tnf promoter reporter signal; gene median z, three same-vendor siRNAs: higher = stronger Tnf reporter signal for the gene
- Call rule: 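Active siRNA: replicate-mean z-score of 2 or more, or -2 or less; no calls for control wells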

Depletion of Serpine2 #1 resulted in: TNF reporter z-score, mean 0.0809; gene median z, three same-vendor siRNAs -3.59; inactive.
Knock-down of Serpine2 #2 resulted in: TNF reporter z-score, mean -3.59; gene median z, three same-vendor siRNAs -3.59; active.
After knock-down of Serpine2 #3, the screen gave TNF reporter z-score, mean -5.33; gene median z, three same-vendor siRNAs -3.59; active.
For Serpine2 #4, the entry reads TNF reporter z-score, mean 1.32; gene median z, three same-vendor siRNAs -0.646; inactive.
Serpine2 #5 showed TNF reporter z-score, mean -0.455; gene median z, three same-vendor siRNAs -0.646; inactive.
Depletion of Serpine2 #6 came out at: TNF reporter z-score, mean -2.44; gene median z, three same-vendor siRNAs -0.646; active.
After knock-down of Chchd2 #1, the screen gave TNF reporter z-score, mean -0.228; gene median z, three same-vendor siRNAs -0.863; inactive.
For Chchd2 #2, the values are TNF reporter z-score, mean 0.475; gene median z, three same-vendor siRNAs -0.863; inactive.
Chchd2 #3 scored TNF reporter z-score, mean -1.09; gene median z, three same-vendor siRNAs -0.863; inactive.
Silencing of Chchd2 #4 gave: TNF reporter z-score, mean 3.12; gene median z, three same-vendor siRNAs 0.506; active.
Knock-down of Chchd2 #5 came out at: TNF reporter z-score, mean 2.24; gene median z, three same-vendor siRNAs 0.506; active.
For Chchd2 #6 the deposit lists TNF reporter z-score, mean -3.26; gene median z, three same-vendor siRNAs 0.506; active.
Against Arpc2 #1 the deposit lists TNF reporter z-score, mean 1.5; gene median z, three same-vendor siRNAs -0.658; inactive.
Against Arpc2 #2, the entry reads TNF reporter z-score, mean -0.658; gene median z, three same-vendor siRNAs -0.658; inactive.
For Arpc2 #3 the deposit lists TNF reporter z-score, mean -1.85; gene median z, three same-vendor siRNAs -0.658; inactive.

Copied from the listing, 2 entries:
Serpine2 #3: TNF reporter z-score, mean = -5.33; gene median z, three same-vendor siRNAs = -3.59; Outcome = active
Serpine2 #4: TNF reporter z-score, mean = 1.32; gene median z, three same-vendor siRNAs = -0.646; Outcome = inactive

The listing continues:
Plekho2 #1 gave TNF reporter z-score, mean -0.586; gene median z, three same-vendor siRNAs -3.98; inactive.
With knock-down of Plekho2 #2 the results were TNF reporter z-score, mean -3.98; gene median z, three same-vendor siRNAs -3.98; active.
Against Plekho2 #3, the entry reads TNF reporter z-score, mean -4.86; gene median z, three same-vendor siRNAs -3.98; active.
After knock-down of Plekho2 #4, the screen gave TNF reporter z-score, mean 2.67; gene median z, three same-vendor siRNAs -0.403; active.
Plekho2 #5 gave TNF reporter z-score, mean 0.0553; gene median z, three same-vendor siRNAs -0.403; inactive.
Plekho2 #6 showed TNF reporter z-score, mean -1.58; gene median z, three same-vendor siRNAs -0.403; inactive.
After knock-down of Ptges #1 the results were TNF reporter z-score, mean -1.76; gene median z, three same-vendor siRNAs -2.81; inactive.
Knock-down of Ptges #2 gave: TNF reporter z-score, mean -2.97; gene median z, three same-vendor siRNAs -2.81; active.
Against Ptges #3 the deposit lists TNF reporter z-score, mean -4.42; gene median z, three same-vendor siRNAs -2.81; active.
After knock-down of Ptges #4, the record shows TNF reporter z-score, mean 0.902; gene median z, three same-vendor siRNAs -0.119; inactive.
For Ptges #5, the values are TNF reporter z-score, mean 0.846; gene median z, three same-vendor siRNAs -0.119; inactive.
After knock-down of Ptges #6, the screen gave TNF reporter z-score, mean -1.67; gene median z, three same-vendor siRNAs -0.119; inactive.
Knock-down of C730034F03Rik #1 resulted in: TNF reporter z-score, mean 0.381; gene median z, three same-vendor siRNAs -2.43; inactive.
C730034F03Rik #2 showed TNF reporter z-score, mean -3.31; gene median z, three same-vendor siRNAs -2.43; active.
Depletion of C730034F03Rik #3 resulted in: TNF reporter z-score, mean -3.81; gene median z, three same-vendor siRNAs -2.43; active.
Depletion of C730034F03Rik #4 gave: TNF reporter z-score, mean 4.11; gene median z, three same-vendor siRNAs 0.642; active.
Against C730034F03Rik #5, the values are TNF reporter z-score, mean 1.34; gene median z, three same-vendor siRNAs 0.642; inactive.
Depletion of C730034F03Rik #6 resulted in: TNF reporter z-score, mean -1.72; gene median z, three same-vendor siRNAs 0.642; inactive.
